This note sets out measurements from paper PMC7788524.

By UniProt entry, the sequences of proteins in these tests, tags left out. Residues count along the entry.
UniProt P06213, residues 28-1382: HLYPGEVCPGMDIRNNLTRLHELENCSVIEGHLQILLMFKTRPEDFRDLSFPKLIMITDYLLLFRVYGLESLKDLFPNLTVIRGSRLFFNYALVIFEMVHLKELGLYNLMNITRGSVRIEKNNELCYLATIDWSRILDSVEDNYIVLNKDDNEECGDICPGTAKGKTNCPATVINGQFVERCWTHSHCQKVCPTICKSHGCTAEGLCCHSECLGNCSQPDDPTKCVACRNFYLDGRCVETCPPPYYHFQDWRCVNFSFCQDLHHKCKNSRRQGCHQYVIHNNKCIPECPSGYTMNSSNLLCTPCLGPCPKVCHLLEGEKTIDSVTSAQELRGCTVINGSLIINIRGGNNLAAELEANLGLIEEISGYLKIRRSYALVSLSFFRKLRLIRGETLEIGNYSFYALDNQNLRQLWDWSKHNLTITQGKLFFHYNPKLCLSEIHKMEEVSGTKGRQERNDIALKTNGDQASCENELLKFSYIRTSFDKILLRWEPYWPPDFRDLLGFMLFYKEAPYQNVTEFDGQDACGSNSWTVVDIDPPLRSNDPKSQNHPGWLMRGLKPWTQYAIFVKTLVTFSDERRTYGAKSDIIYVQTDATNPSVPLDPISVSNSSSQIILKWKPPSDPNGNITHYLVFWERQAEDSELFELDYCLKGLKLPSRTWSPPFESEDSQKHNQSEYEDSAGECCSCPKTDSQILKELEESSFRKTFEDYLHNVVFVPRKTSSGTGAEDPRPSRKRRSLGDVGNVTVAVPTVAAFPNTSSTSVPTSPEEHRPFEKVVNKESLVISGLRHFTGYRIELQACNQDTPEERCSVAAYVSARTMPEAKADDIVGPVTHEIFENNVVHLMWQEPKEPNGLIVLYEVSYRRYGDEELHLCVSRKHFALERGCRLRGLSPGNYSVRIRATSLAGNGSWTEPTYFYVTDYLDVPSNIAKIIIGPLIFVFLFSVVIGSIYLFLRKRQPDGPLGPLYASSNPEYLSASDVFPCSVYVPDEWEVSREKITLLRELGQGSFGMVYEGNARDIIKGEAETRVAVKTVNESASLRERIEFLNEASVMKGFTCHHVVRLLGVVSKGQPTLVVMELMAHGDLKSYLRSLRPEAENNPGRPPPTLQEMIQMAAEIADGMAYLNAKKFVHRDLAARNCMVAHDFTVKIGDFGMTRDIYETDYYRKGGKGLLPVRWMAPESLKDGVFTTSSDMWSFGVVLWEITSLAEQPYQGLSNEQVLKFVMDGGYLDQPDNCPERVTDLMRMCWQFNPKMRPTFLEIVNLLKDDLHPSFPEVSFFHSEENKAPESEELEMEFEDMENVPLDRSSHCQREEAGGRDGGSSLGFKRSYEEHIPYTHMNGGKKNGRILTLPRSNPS
UniProt P05556: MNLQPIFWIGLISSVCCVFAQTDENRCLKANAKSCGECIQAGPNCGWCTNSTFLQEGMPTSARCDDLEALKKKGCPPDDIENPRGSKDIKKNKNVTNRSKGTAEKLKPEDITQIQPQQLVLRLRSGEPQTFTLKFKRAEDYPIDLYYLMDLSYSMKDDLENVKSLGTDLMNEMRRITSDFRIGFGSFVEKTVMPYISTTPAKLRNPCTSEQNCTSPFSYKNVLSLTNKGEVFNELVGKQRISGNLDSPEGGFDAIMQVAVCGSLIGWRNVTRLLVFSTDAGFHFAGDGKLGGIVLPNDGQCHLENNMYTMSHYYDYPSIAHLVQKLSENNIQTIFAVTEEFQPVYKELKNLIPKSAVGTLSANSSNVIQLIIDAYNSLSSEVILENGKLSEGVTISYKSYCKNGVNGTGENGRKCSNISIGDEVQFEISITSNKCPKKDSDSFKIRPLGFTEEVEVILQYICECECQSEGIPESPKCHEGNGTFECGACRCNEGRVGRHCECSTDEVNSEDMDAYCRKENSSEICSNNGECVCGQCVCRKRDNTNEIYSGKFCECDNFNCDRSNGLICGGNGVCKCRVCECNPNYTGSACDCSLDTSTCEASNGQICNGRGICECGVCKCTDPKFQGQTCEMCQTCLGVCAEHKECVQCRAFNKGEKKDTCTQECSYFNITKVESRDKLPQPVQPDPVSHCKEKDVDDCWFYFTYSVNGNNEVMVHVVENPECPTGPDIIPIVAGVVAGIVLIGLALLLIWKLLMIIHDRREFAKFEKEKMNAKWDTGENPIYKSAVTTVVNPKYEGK

These are yes or no findings as the source states them, for the method shown. In cells and extracts the contact can be indirect. Some binding calls cover weakened binding; strength is not graded here.

Assay [1] concerns the target human insulin receptor (INSR) overexpressed in immortalised human podocytes (hWT-IR) (human) (UniProt P06213). The assay is described as follows: condition: only cells treated with nocodazole (microtubules disrupted); co-IP; INSR precipitated from hWT-IR human podocyte lysate; cells treated with nocodazole to disrupt microtubules (without palmitate); western blot. Background: In western blotting, separated proteins are transferred to a membrane and probed.

Assay [2] has the same target. The assay is described as follows: co-IP; INSR precipitated from hWT-IR human podocyte lysate with anti-INSR beta subunit antibody (CT-1) cross-linked to protein G Dynabeads; western blot; cells with 100 nM insulin (time points), with or without palmitate, palmitate with nocodazole; integrin β1 as control.
In assay [3] the target is integrin β1 (human (endogenous in human podocytes)) (UniProt P05556). The description is as above.

B1: doublecortin domain-containing protein 2 (DCDC2) (protein, UniProt Q9UHG0 1-476)
chain: MSGSSARSSHLSQPVVKSVLVYRNGDPFYAGRRVVIHEKKVSSFEVFLKEVTGGVQAPFGAVRNIYTPRTGHRIRKLDQIQSGGNYVAGGQEAFKKLNYLDIGEIKKRPMEVVNTEVKPVIHSRINVSARFRKPLQEPCTIFLIANGDLINPASRLLIPRKTLNQWDHVLQMVTEKITLRSGAVHRLYTLEGKLVESGAELENGQFYVAVGRDKFKKLPYSELLFDKSTMRRPFGQKASSLPPIVGSRKSKGSGNDRHSKSTVGSSDNSSPQPLKRKGKKEDVNSEKLTKLKQNVKLKNSQETIPNSDEGIFKAGAERSETRGAAEVQEDEDTQVEVPVDQRPAEIVDEEEDGEKANKDAEQKEDFSGMNGDLEEEGGREATDAPEQVEEILDHSEQQARPARVNGGTDEENGEELQQVNNELQLVLDKERKSQGAGSGQDEADVDPQRPPRPEVKITSPEENENNQQNKDYAAVA
Turning to B1, the values for the binding result in assay [1], in assay [2] and in assay [3] were “no binding”, “binds” and “no binding”, respectively.
